From PubChem BioAssay AID1662 (Broad Institute, 2009)
Among all 300,000 compounds or so, about 4,000 (1.3%) were called active. The inconclusive results got no clear call from the source; some entries with a clear call stand among them for comparison.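 How the source made its calls: active means mean replicate score, as percent of positive control median, at least 50; inconclusive means mean below 50 but one replicate at or above 50; inactive means mean and every replicate below 50.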

Assay: kanamycin survival loss of SKKanGAS strain – BacTiter-Glo luminescence, streptokinase expression inhibitor project, primary screen (AID 1662);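 further: strain carries kanamycin resistance gene driven by streptokinase promoter and grows in 40 µg/ml kanamycin; loss of luminescence reflects streptokinase promoter inhibition or plain growth inhibition; 0% = median of DMSO wells and 100% = positive control at its reference dose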
Settings: S. pyogenes SKKanGAS, kanamycin growth, 6 h, at 7.5 µM, active compounds read high

Structure (SMILES)	inhibition
N#C/C(=C\c1cn(CCOc2ccccc2)c2ccccc12)C(=O)NCc1cccs1	inactive: 12.2%
COc1ccc(NC(=O)Nc2ccc(F)c(F)c2)c(OC)c1	inactive: -0.26%
CC(=O)NC(c1ccc(C)cc1)c1cc([N+](=O)[O-])c2cccnc2c1O (configuration not stated)	inconclusive: 35.3%
CCN(CC)CCN(C(=O)CCS(=O)(=O)c1ccccc1)c1nc2cc3c(cc2s1)OCO3	inconclusive: 43.8%
COc1cc(C(=O)NC(=S)NNC(=O)[C@H]2C[C@@H]2c2ccccc2)cc(OC)c1OC	active: 90.4%
Cc1ccc(Cc2c(C)c(C#N)c3[nH]c4ccccc4n3c2=O)cc1	inactive: 0.514%
O=[N+]([O-])c1ccc(/C=N/Nc2ccnc3cc(Cl)ccc23)o1	inconclusive: 48.7%
COc1ccc(OCC(O)CNCCOc2ccccc2OC)c(C(C)(C)C)c1 (configuration not stated)	inactive: 0.891%
Cc1cccc(CCN(C(=O)Cc2cccs2)C(C(=O)NC2CCCCC2)c2cccnc2)c1 (configuration not stated)	inactive: 4.76%
Cc1ccc(C(=O)NC(=S)NNC(=O)c2cccc([N+](=O)[O-])c2)cc1	active: 74%
c1ccc(Oc2nc(-c3ccccn3)nc3ccccc23)cc1	active: 109%
O=C(CNC(=O)c1cccc(Br)c1)N/N=C/c1cc(Br)cc(Br)c1O	inconclusive: 48.1%
Cc1ccc(C(=O)NCCn2c(N)c(C#N)c3nc4ccccc4nc32)cc1	inactive: 7.06%
COC(=O)c1cc(-c2ccc(OC)cc2F)nc2nc(SC)[nH]c(=O)c12	inconclusive: 39.4%
COc1ccc(-c2nc(-c3cccs3)c(-c3cccs3)[nH]2)cc1O	active: 60.8%
FC(F)Oc1ccc(/C=N/c2c(-c3ccc(OC(F)F)cc3)nc3n2CCS3)cc1	inactive: 9.47%
Cc1ccc2nc(SCC(=O)c3ccc(Cl)s3)[nH]c2c1	inconclusive: 28.3%
O=C(CSc1nnc(CNC(=O)c2ccccc2)o1)NCCc1ccccc1	inconclusive: 46.5%
c1ccc(C(c2nnnn2C2CCCC2)N2CCCCCC2)nc1 (configuration not stated)	inactive: 1.03%
CC(C)(C)c1cc(C(=O)Nc2ccc(F)cc2)n(Cc2ccc(F)cc2)n1	inconclusive: 45%
CN(CCC#N)C(=S)Nc1ccc(S(=O)(=O)N2CCOCC2)cc1	inactive: -18.5%
CC(C)(C)c1ccc(C(=O)Nc2nnc(C3=COCCO3)o2)cc1	active: 80.3%

2 entries picked at random from the list so far:
Structure (SMILES)	inhibition
COC(=O)c1cc(-c2ccc(OC)cc2F)nc2nc(SC)[nH]c(=O)c12	inconclusive: 39.4%
COc1ccc(-c2nc(-c3cccs3)c(-c3cccs3)[nH]2)cc1O	active: 60.8%

Additional entries:

Structure (SMILES)	inhibition
CNC(=O)c1c(NC(=O)c2ccco2)sc2c1CCCC2	inconclusive: 42.3%
Cc1ccccc1N(CC(=O)NC(C)(C)C)C(=O)CCC(=O)Nc1nccs1	inactive: -0.78%
COc1cc(C(CCN2CCCCC2)c2c(OC)cc(OC)c3c(C)cc(=O)oc23)cc(OC)c1OC (configuration not stated)	inactive: -1.79%
Cc1nc2c(C(=O)NCc3ccc4c(c3)OCO4)cnn2c(C)c1Cc1ccc(F)cc1Cl	inconclusive: 49.2%
CCn1c(SCC(=O)N2CCN(c3cccc(Cl)c3)CC2)nc2ccccc2c1=O	inconclusive: 33.4%
Cc1c(Cl)cccc1NC(=O)CCCn1cnc([N+](=O)[O-])n1	inactive: -3.16%
Nc1nc(NCc2ccco2)nc(N2CCCCCC2)c1[N+](=O)[O-]	inconclusive: 47.6%
c1ccc2c(c1)ncn2CCCOc1ccc2c(c1)CCC2	inconclusive: 44.2%
Cc1[nH]c(N=Nc2ccccc2)nc1N=Nc1ccccc1	inconclusive: 43.6%
CCOC(=O)c1cccc(NC(=S)N2CCN(c3ncc4c(=O)c(C(=O)O)cn(CC)c4n3)CC2)c1	inconclusive: 48.4%
CCc1ccc(-c2cc(C)no2)cc1S(=O)(=O)Nc1cccc(CN2CCCC2)c1	inconclusive: 33.6%
COc1ccc(NC(=O)NCCCN2CCC(Cc3ccccc3)CC2)cc1	inactive: 1.63%
Cc1ccc(-c2cc([C@H]3[C@@H]4C=CCC[C@@]4(C)C(=O)N3Cc3ccccc3)ccc2F)cc1	inconclusive: 49.2%
O=C(NC(=S)Nc1cccc(-c2ccc(CO)o2)c1)c1cccs1	inconclusive: 46.3%
Cc1c(C)n(Cc2ccc(F)cc2)c2ccc(C(=O)N3CCN(c4ccccn4)CC3)cc12	inconclusive: 41%
CCCN(CC(=O)Nc1ccccc1OC)Cc1c(O)ccc2ccccc12	inactive: 2.25%
N#CC1=C(N)SC(N)=C(C#N)C1c1c(Cl)cccc1Cl	inconclusive: 48.4%
Cc1ccc(C)c(NC(=O)c2ccc(S(=O)(=O)N(C)CC3CCCO3)cc2)c1 (configuration not stated)	inconclusive: 46.4%
O=C(O)C(c1ccccc1)N1C(=O)/C(=C\c2ccc(-c3cccc(Cl)c3)o2)SC1=S (configuration not stated)	active: 94%
O=C(N/N=C/c1cc(Br)ccc1O)C(=O)Nc1ccccc1OC(F)(F)C(F)F	active: 103%
CCCC(=O)C1=C(O)C(C(=O)OC)C(C)(C)CC1=Nc1ccc(C)cc1 (configuration not stated)	inactive: 11.8%
CC1CCCCN1S(=O)(=O)c1ccc(C(=O)Nc2nnc(-c3ccco3)o2)cc1 (configuration not stated)	inconclusive: 35.3%

Structure (SMILES)	inhibition
O=C1/C(=C/c2cccs2)CCC/C1=C\c1cccs1	inconclusive: 46.6%
Cc1ccc(C(=O)NC(=S)N(C)C2CCCCC2)cc1Br	active: 84.9%
C=CCn1c(NCc2cc(Cl)ccc2O)nc2ccccc21	inconclusive: 48.6%
COC(=O)c1[nH]c2cc(OC)ccc2c1NC(=O)CCN1CCCC(C)(C)C1	inactive: -7.58%
O=C(/C=C/c1cn(-c2ccccc2)nc1-c1ccccc1)Nc1ccc(C(=O)O)cc1	active: 49.9%
Fc1ccc(-c2csc3ncnc(N4CCc5ccccc5C4)c23)cc1	inconclusive: 37.9%
O=C(Cc1cccc2ccccc12)Nc1nc2ccccc2[nH]1	inconclusive: 39.2%
COc1ccc(Cc2nc3ccc(C(=O)N4CCC(N(C)C)C4)cc3o2)cc1 (configuration not stated)	inconclusive: 43.6%
O=C(NCCc1ccccc1Cl)C1CCC(=O)N(Cc2ccc(Cl)cc2)C1 (configuration not stated)	inconclusive: 44%
CC(=O)c1c(C)n([O-])c2cc(F)c(F)cc2[n+]1=O	inconclusive: 45.9%
O=[N+]([O-])c1cc(/C=N\Nc2nc(-c3ccccc3)cs2)ccc1O	inconclusive: 29.4%
CCOC(=O)Cc1cc(=O)n2[nH]cc(-c3cccc(Br)c3)c2n1	active: 71.2%
CCCCOc1ccccc1C1NC(=O)CCC1[N+](=O)[O-] (configuration not stated)	inactive: -3.55%
O=C(O)CC/C(=C\c1cc2c(cc1Br)OCO2)c1nc2ccccc2s1	inconclusive: 42.2%
Cc1cc(Cl)c2oc(C(=O)N3CCN(C(=O)c4ccco4)CC3)c(C)c2c1	inconclusive: 28%
COCC1CCN(C(=O)c2ccc3oc(Cc4ccccc4)nc3c2)C1 (configuration not stated)	inconclusive: 47.6%
CCCCCCCCCCCC(=O)N/N=C/c1ccco1	inactive: 5.42%
CC(COc1ccc(C(C)C)cc1)NC(=O)c1ccc(Br)o1 (configuration not stated)	inconclusive: 42.2%
CCOC(=O)c1nnc(-c2ccc(C)cc2)nc1Sc1cccc(Cl)c1	inactive: 0.355%
Cc1cccc(NC(=S)/N=C(\N)Nc2nc(C)c3ccc(C)cc3n2)c1	inconclusive: 48.4%
O=C(COc1cccc(Oc2ccccc2)c1)Nc1ccc(SC(F)F)cc1	inconclusive: 48.7%
COc1ccc(Cn2c(-c3ccco3)nc3oc4cc(OC)ccc4c(=O)c3c2=O)cc1	inconclusive: 47.1%

Exported bar-delimited: 2 of the compounds above.
Structure (SMILES) | inhibition
Cc1[nH]c(N=Nc2ccccc2)nc1N=Nc1ccccc1 | inconclusive: 43.6%
CCOC(=O)c1cccc(NC(=S)N2CCN(c3ncc4c(=O)c(C(=O)O)cn(CC)c4n3)CC2)c1 | inconclusive: 48.4%

An excerpt from above in order of number of heavy atoms, descending.
Structure (SMILES)	inhibition
CCN(CC)CCN(C(=O)CCS(=O)(=O)c1ccccc1)c1nc2cc3c(cc2s1)OCO3	inconclusive: 43.8%
COc1cc(C(=O)NC(=S)NNC(=O)[C@H]2C[C@@H]2c2ccccc2)cc(OC)c1OC	active: 90.4%
N#CC1=C(N)SC(N)=C(C#N)C1c1c(Cl)cccc1Cl	inconclusive: 48.4%

Further entries

Structure (SMILES)	inhibition
CCCCCCCCCCCCCCCC(O)C(N)CO (configuration not stated)	active: 74.7%
C/C(CC(=O)Nc1cc(C)ccn1)=N\NC(=O)COc1cccc(C)c1	inactive: 0.584%
COc1ccc(Br)cc1[C@H]1[C@@H]2C=CCC[C@@]2(C)C(=O)N1Cc1ccccc1	inconclusive: 47.7%
CNC(=S)N(CCCN(C)C)Cc1cc2cc3c(cc2[nH]c1=O)OCCO3	inactive: 0.729%
Cc1cccc(NC(=O)c2nc[nH]c2C(=O)N[C@@H](CC(C)C)C(=O)OC(C)(C)C)c1	active: 99.6%
COc1ccc(CCn2c(=S)[nH]c3cc(C(=O)NCc4ccco4)ccc3c2=O)cc1OC	inconclusive: 31.3%
CN(c1ccccc1)S(=O)(=O)c1nnc(NC(=O)c2ccco2)s1	inconclusive: 45.1%
COc1nc(N)c(S(=O)(=O)c2ccc(C)cc2)cc1C#N	inactive: -0.66%
COc1ccc(OC)c(NC(=O)COC(=O)C2CCN(C(=O)c3ccc(Cl)cc3)CC2)c1	inactive: 0.708%
COc1ccc(CCNC(=O)c2ccc(CNS(=O)(=O)c3ccc(C(C)(C)C)cc3)cc2)cc1OC	inconclusive: 47.5%
COC(=O)c1ccc(CSc2cc(C)c3cc(C)cc(C)c3n2)o1	inconclusive: 42.9%
CCCNc1nc(Cl)nc(NC(C)(C)C)n1	inactive: -8.29%
O=C(OCC(=O)N1CCCC1)c1c(Cl)cccc1Cl	inactive: 13.8%
Cc1cc(C)c[n+](C2=C([O-])c3ccccc3C(=O)/C2=N\S(=O)(=O)c2cccs2)c1	inconclusive: 32%
Cc1cc(/C=N/n2c(COc3ccccc3C)nc3ccccc3c2=O)c(O)c([N+](=O)[O-])c1	active: 51.9%
COC(=O)c1cc(C(=O)NCc2ccccc2)c(=O)[nH]c1C	inactive: 0.465%
Cc1ccsc1/C=N/Nc1nc2ccccc2[nH]1	inconclusive: 35.1%
O=C(NCCCn1ccnc1)c1nn2c(C(F)(F)F)cc(-c3ccccc3)nc2c1Cl	inconclusive: 44.2%
COc1ccc(C(=O)NCC(C)NC(=O)c2ccc(OC)c(OC)c2)cc1OC (configuration not stated)	inconclusive: 41.6%
C=CCn1c2ccccc2c2nnc(SC(CC)C(=O)Nc3sc4c(c3C#N)CCCC4)nc21 (configuration not stated)	inconclusive: 30.4%
COC(=O)c1cc(Cl)cc(Cl)c1OS(=O)(=O)N(C)C	inactive: -1.78%
